Experimental data from patent publication US20240158386A1, “BENZOXAZOLONE INHIBITORS OF INFLAMMASOMES” (ICAHN SCHOOL OF MEDICINE AT MOUNT SINAI, priority 2021, published 2024).
Some results were stated once for a whole list of compounds, not compound by compound.

Test system: primary microglial cultures
Experiment: Pyroptosis measurement (LDH release) in primary microglial cultures
Type: cell-based, murine
Settings: primary microglia, LPS and ATP

Question: How did the concentrations inhibiting pyroptosis turn out when O=C(Cn1c(=O)oc2ccccc21)NCC(O)(c1ccoc1)c1ccco1 (centres unmarked) [Compound C75] was run?
Answer: ≥ 1 µM

Question: For O=C(Cn1c(=O)oc2ccccc21)NCCn1cc(-c2ccoc2)cn1 [Compound C78, N-(2-(4-(furan-3-yl)-1H-pyrazol-1-yl)ethyl)-2-(2-oxobenzoidloxazol-3(2H)-yl)acetamide], which concentrations inhibiting pyroptosis is on record?
Answer: ≥ 1 µM
